In the supplement of paper PMC7877785:
± gives the uncertainty stated by the source. The uncertainty is large for many entries.

Test: self-splicing fitness, log relative to wild type (ln ratio); higher = more splicing; Tetrahymena group I intron in knt gene, E. coli kanamycin selection, DiMSum; sequences stand for … in CUCUCU…GGAGGGAAAAGUUAUCAGGCAUGCACCUGGUAGCUAGUCUUUAAACCAAUAGAUUGCAUCGGUUUAAAAGGCAAGACCGUCAAAUUGCGGGAAAGGGGUCAACAGCCGUUCAGUACCAAGUCUCAGGGGAAACUUUGAGAUGGCCUUGCAAAGGGUAUGGUAAUAAGCUGACGGACAUGGUCCUAACCACGCAGCCAAGUCCUAAGUCAACAGAUCUUCUGUUGAUAUGGAUGCAGUUCACAGACUAAAUGUCGGUCGGGGAAGAUGUAUUCUUCUCAUAAGAUAUAGUCGGACCUCUCCUUAAUGGGAGCUAGCGGAUGAAGUGAUGCAACACUGGAGCCGCUGGGAACUAAUUUGUAUGCGAAAGUAUAUUGAUUAGUUUUGGAGUACUCGUGGUCG
Summary of the method: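 A randomised library covering all eight P1ex-region intron nucleotides was built with the intron in the knt kanamycin-resistance gene on pET-22b(+) and held in E. coli BL21(DE3). Cells were grown overnight at 37°C or 30°C on LB agar, with or without 25 μg/mL kanamycin, plus 100 μg/mL carbenicillin, 50 μM IPTG and 0.2% rhamnose, and pooled colonies were amplicon-sequenced on an Illumina HiSeq 2500. DiMSum fitness is the error-weighted combination of wild-type-normalised replicate fold changes, kanamycin versus none.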

| Sequence | self-splicing fitness (ln) (37 °C) | self-splicing fitness (ln) (30 °C) |
| --- | --- | --- |
| UUGGAGCAAUAUUACGUUUA | -2.91 ± 0.61 |  |
| CCAGAGCAAUAUUACGCUCC | -1.33 ± 1.2 | -3.31 ± 1 |
